Assay results published in patent US10913709B2, “STAT3 inhibitor formulation” (priority 2017, dated 2021).
At least one read-out could not be matched to a standard name with certainty.

Test: Stability in acetonitrile extract (post sample preparation)
Format: physicochemical
Description: In particular, once the centrifugation was performed on the blood samples to provide the plasma samples for analysis, extraction into acetonitrile was done as quickly as possible (e.g., <1 hour).

With `Cc1ccc(S(=O)(=O)OCC(=O)Nc2ccc(C(=O)O)c(O)c2)cc1` [Compound 1] the “% Recovery” value (0 days) was 89%, the “% Recovery” value (2 days) was 89% and the “% Recovery” value (3 days) was 90%. For the same compound, the “% Recovery” value (6 days) was 90%.
